PubChem BioAssay AID1259254 – NCATS – 2017
Screen: 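Gene knock-downs that lead to re-replication, shown by excess G2 DNA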 (primary screen). Cells: human HCT116 colorectal cancer cells. Knock-down reagent: single siRNA against human genes. Duration: 3 days. Measurement: 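Nuclei stained with Hoechst and imaged; cell-cycle phase assigned by DNA content; G2 share scaled per plate, non-targeting siRNA 0%, GMNN siRNA 100%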. Scale: G2 robust z-score and G2 cells, % of GMNN control: higher = more G2 cells, more excess DNA replication. Call rule: 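An siRNA counts as active if its G2 robust z-score lies at least 5 MADs above the screen median; here such calls match roughly 38% of GMNN control or more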.
Here is an unselected part of about 59,000 deposited reagents. In the full data, about 1,550 (2.6%) are marked active. 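G2 share is only a proxy for re-replication; each gene was hit by three separate siRNAs, and active genes were retested.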 Entries without a mark were called inactive. The numbers tell different reagents against one gene apart. Not all columns of the deposit are shown. Not given: the amount of reagent.

gene knocked down,siRNA no.,G2 robust z-score,"G2 cells, % of GMNN control"
UNC13D (GeneID 201294),1,-0.857,-3.06
UNC13D (GeneID 201294),2,-0.0867,2.36
UNC13D (GeneID 201294),3,0.263,4.82
NANOG (GeneID 79923),1,-0.528,-0.744
NANOG (GeneID 79923),2,-0.581,-1.12
NANOG (GeneID 79923),3,-0.267,1.09
PRG4 (GeneID 10216),1,-0.577,-1.09
PRG4 (GeneID 10216),2,-0.607,-1.3
PRG4 (GeneID 10216),3,0.675,7.72
CNST (GeneID 163882),1,0.147,4
CNST (GeneID 163882),2,-0.886,-3.27
CNST (GeneID 163882),3,0.388,5.7
LOXL3 (GeneID 84695),1,-0.265,1.1
LOXL3 (GeneID 84695),2,0.0201,3.11
LOXL3 (GeneID 84695),3,0.277,4.91
NCKAP1L (GeneID 3071),1,0.305,5.11
NCKAP1L (GeneID 3071),2,-0.691,-1.89
NCKAP1L (GeneID 3071),3,1.05,10.4
CHAC2 (GeneID 494143),1,-0.632,-1.48
CHAC2 (GeneID 494143),2,0.806,8.64
CHAC2 (GeneID 494143),3,-0.262,1.12
PPP1R3F (GeneID 89801),1,-0.498,-0.535
PPP1R3F (GeneID 89801),2,3.99,31
PPP1R3F (GeneID 89801),3,2.45,20.2
OPCML (GeneID 4978),1,1.41,12.9
OPCML (GeneID 4978),2,0.336,5.33
OPCML (GeneID 4978),3,0.719,8.03
KLHL14 (GeneID 57565),1,-0.449,-0.192
KLHL14 (GeneID 57565),2,-0.383,0.272
KLHL14 (GeneID 57565),3,-0.729,-2.16
PPP1R1C (GeneID 151242),1,0.661,7.62
PPP1R1C (GeneID 151242),2,0.123,3.84
PPP1R1C (GeneID 151242),3,1.66,14.7
FAM76A (GeneID 199870),1,-0.137,2
FAM76A (GeneID 199870),2,0.218,4.5
FAM76A (GeneID 199870),3,-0.651,-1.61
TNFSF11 (GeneID 8600),1,-0.709,-2.02
TNFSF11 (GeneID 8600),2,1.02,10.2
TNFSF11 (GeneID 8600),3,-1.04,-4.33
OTOP1 (GeneID 133060),1,-1.16,-5.23
OTOP1 (GeneID 133060),2,0.309,5.14
OTOP1 (GeneID 133060),3,-0.135,2.01
CXorf66 (GeneID 347487),1,-0.945,-3.68
CXorf66 (GeneID 347487),2,5.73 (active),43.3
CXorf66 (GeneID 347487),3,1.38,12.7
MANBA (GeneID 4126),1,-1.56,-8.01
MANBA (GeneID 4126),2,-0.755,-2.35
MANBA (GeneID 4126),3,7.77 (active),57.6

Reprinted from the entries so far, 7 entries:
gene knocked down,siRNA no.,G2 robust z-score,"G2 cells, % of GMNN control"
PRG4 (GeneID 10216),2,-0.607,-1.3
PRG4 (GeneID 10216),3,0.675,7.72
CNST (GeneID 163882),1,0.147,4
CNST (GeneID 163882),2,-0.886,-3.27
CNST (GeneID 163882),3,0.388,5.7
LOXL3 (GeneID 84695),1,-0.265,1.1
LOXL3 (GeneID 84695),2,0.0201,3.11
